Laboratory results from patent US20110060029A1, “METHOD OF TREATING CANCER BY MODULATING EPAC” (priority 2009, published 2011).
Entries after “also recorded” stand apart in the source; their conditions may differ. At least one compound was matched to its structure with a doubt left.

Experiments:
Type in all cases: cell-based, human
SK-Mel-2 = assay: Migration assay (Boyden chambers) in SK-Mel-2; details: wortmannin 10 μM, FIG. 4F
Experimental: Cell Culture—SK-Mel-2 and SK-Mel-24 (ATCC) cell lines were cultured in Eagle's Minimum Essential Medium supplemented with 10% fetal bovine serum at 37° C./5% CO2. HEMA-LP human melanocytes (Cascade Biologics) were maintained in Medium 254 with Human Melanocyte Growth Supplement (Cascade Biologics).
Adenoviral Overexpression—Recombinant adenoviruses containing human LacZ, Epac1 or Epac2 were constructed (Adeno-X Expression System, Clontech). Human Epac1 and Epac2 cDNA were kindly provided by Dr. J. L Bos (University Medical Center, Utrecht, Netherlands). Adenovirus of PKA alpha subunit was purchased from Vector Biolabs. The corresponding encoding sequence was cloned in topShuttle2 (Clontech) to obtain a mammalian expression cassette, which was then excised and ligated into BD Adeno-X Viral DNA. The recombinant vector was introduced into human embryonic kidney cells (HEK293) to recover infectious adenovirus. Viruses were propagated in HEK293 cells, and purified by BD Adeno-X Virus Purification Kits. Viral titer was determined by Adeno-X Rapid Titer Kit (Clontech). […]
Migration assay—Migration assay was performed using methods previously known in the art using the Boyden chambers (pore size 8 μm, BD Biosciences). […] After mechanical removing of the cells on the upper surface of the membrane with a cotton swab, cells that migrated onto the lower surface of the membrane were counted. […]

tubulin = assay: Tubulin polymerization assay in SK-Mel-2; details: SK-Mel-2 with Epac1 overexpression; 10 μM wortmannin for 3 h; FIG. 4A
[1] = system: syndecan-2 colocalization with lipid rafts; assay: Immunocytochemical staining of syndecan-2 and lipid rafts in SK-Mel-2; details: SK-Mel-2 overexpressing Epac1; wortmannin 10 μM for 3 h; FIG. 4E
Experimental: Immunocytochemistry—Immunocytochemistry was performed using methods previously known in the art. SK-Mel-2 on glass coverslips were fixed, washed and permeabilized with 0.02% Triton-X followed by incubation with primary and secondary antibodies for 30 min at room temperature. Alexa Fluor 488- and 594-conjugated goat anti-rabbit or anti-mouse antibodies (Molecular Probes) were used. The pictures were taken with a digital camera operated on a Nikon Eclipse TE200 or a confocal microscope (Zeiss Axiovert 100M). For mounting media, Prolong-Gold antifade with DAPI (Molecular Probes) was used.

GSK3β = assay: Immunoblot for phosphorylated and total GSK3β in SK-Mel-2; details: SK-Mel-2 with Epac1 overexpression; 10 μM wortmannin for 3 h; FIG. 4C
[2] = system: syndecan-2 in lipid rafts-rich fraction; assay: Immunoblot for syndecan-2 in lipid rafts-rich fraction (sucrose density gradient) of SK-Mel-2; details: SK-Mel-2 overexpressing Epac1; 10 μM wortmannin for 3 h; FIG. 4D
Experimental: Western Blotting—Western blot analysis was performed using methods previously known in the art. Cells were lysed and sonicated in lysis buffer containing 25 mM Tris-HCl (pH7.5), 150 mM NaCl, 5 mM MgCl2, 1% NP-40, 1 mM DTT, 5% glycerol, phosphatase inhibitor (Sigma), protease inhibitor cocktail (Sigma) and 1 mM NaF. Equal amounts of protein (20 μg) were subjected to SDS-PAGE. After protein separation by electrophoresis, samples were transferred to Millipore Immobilon-P membrane and immunoblotting with antibodies was performed. Signal intensities of the bands were quantified with Image J software (NIH). Sucrose density gradient centrifugation—Lipid rafts-enriched membrane fractions were prepared using methods previously known in the art. Briefly, SK-Mel-2 cells were homogenated in 2 ml of 500 mM sodium carbonate (pH 11.0) with protease inhibitors (1 μg/ml leupeptin, 0.1 mM PMSF and 50 U/ml egg white trypsin inhibitor) and lysed by sonication. The lysate was then adjusted to 45% sucrose by mixing with 2 ml of 90% sucrose prepared in MBS buffer (25 mM 2-Morpholinoethanesulfonic acid (MES), pH 6.5, […]) and placed at the bottom of 5% and 35% discontinuous sucrose gradient (in MBS buffer containing 100 mM sodium carbonate) for an overnight ultra-centrifugation (260,000 g). Fractions were removed sequentially from the top and designated as fractions 1 through 13. […]

Akt = assay: Immunoblot for phosphorylated and total Akt in SK-Mel-2; details: SK-Mel-2 with Epac1 overexpression; 10 μM wortmannin for 3 h; FIG. 4B

## COC[C@H]1OC(=O)c2coc3c2[C@@]1(C)C1=C(C3=O)[C@@H]2CCC(=O)[C@@]2(C)C[C@H]1OC(C)=O [Wortmannin]
SK-Mel-2
  Epac1-induced migration: decreased; also recorded: inhibited basal and Epac1-induced migration
  basal migration: inhibited basal and Epac1-induced migration
tubulin
  Epac1-induced tubulin polymerization (ratio of tubulin polymers to monomers): inhibited Epac-induced tubulin polymerization; also recorded: decreased Epac1-induced tubulin polymerization
[1]
  Epac1-induced syndecan-2 colocalization with lipid rafts: decreased Epac-induced syndecan-2 localization in lipid rafts; also recorded: decreased Epac1-induced syndecan-2 colocalization with lipid rafts
GSK3β
  Epac1-induced GSK3β phosphorylation: inhibited Epac-induced phosphorylation; also recorded: decreased
[2]
  syndecan-2 expression in lipid raft-rich fraction: decreased Epac-induced syndecan-2 localization in lipid rafts; also recorded: decreased syndecan-2 expression in lipid raft-rich fraction
Akt
  Epac1-induced Akt phosphorylation: inhibited Epac-induced phosphorylation of Akt; also recorded: decreased
